Data reported in the supplement of paper PMC10849652.
Some of the results follow.

By UniProt entry, the sequences of proteins in these tests, tags left out. Where a name states a change or a piece, a line headed by the entry shows the natural chain unless it says otherwise.
UniProt Q7L1V2: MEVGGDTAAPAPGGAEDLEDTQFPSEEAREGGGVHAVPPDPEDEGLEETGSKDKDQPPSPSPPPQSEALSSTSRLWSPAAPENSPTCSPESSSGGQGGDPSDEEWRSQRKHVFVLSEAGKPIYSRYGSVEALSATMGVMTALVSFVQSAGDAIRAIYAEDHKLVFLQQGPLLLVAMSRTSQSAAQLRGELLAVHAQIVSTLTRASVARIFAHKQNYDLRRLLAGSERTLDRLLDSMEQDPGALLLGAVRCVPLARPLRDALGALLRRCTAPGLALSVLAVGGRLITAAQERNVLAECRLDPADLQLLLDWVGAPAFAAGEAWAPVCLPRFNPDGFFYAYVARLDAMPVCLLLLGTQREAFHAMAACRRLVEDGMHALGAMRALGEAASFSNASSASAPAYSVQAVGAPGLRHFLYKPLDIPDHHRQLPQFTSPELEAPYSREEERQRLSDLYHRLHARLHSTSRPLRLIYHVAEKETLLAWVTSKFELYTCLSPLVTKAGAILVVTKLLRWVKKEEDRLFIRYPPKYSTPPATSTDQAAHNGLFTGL
UniProt O75352: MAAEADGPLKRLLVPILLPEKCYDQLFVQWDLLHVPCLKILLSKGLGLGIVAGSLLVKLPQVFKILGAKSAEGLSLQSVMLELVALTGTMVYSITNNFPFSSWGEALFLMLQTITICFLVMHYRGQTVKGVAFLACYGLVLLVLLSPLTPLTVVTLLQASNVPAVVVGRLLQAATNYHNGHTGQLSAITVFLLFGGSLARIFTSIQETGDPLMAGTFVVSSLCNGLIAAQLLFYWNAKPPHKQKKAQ
UniProt Q8N4V1: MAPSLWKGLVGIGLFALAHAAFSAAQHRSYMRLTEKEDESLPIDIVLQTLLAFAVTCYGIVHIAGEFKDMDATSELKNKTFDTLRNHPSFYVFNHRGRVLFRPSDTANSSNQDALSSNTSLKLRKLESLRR
UniProt Q7L9L4: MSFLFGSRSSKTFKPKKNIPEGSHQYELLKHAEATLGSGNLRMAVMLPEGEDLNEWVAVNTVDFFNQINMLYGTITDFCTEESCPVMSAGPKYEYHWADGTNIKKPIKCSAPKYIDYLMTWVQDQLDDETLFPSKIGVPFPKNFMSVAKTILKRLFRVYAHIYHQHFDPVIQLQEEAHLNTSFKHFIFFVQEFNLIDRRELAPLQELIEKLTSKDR
UniProt Q9NZW5: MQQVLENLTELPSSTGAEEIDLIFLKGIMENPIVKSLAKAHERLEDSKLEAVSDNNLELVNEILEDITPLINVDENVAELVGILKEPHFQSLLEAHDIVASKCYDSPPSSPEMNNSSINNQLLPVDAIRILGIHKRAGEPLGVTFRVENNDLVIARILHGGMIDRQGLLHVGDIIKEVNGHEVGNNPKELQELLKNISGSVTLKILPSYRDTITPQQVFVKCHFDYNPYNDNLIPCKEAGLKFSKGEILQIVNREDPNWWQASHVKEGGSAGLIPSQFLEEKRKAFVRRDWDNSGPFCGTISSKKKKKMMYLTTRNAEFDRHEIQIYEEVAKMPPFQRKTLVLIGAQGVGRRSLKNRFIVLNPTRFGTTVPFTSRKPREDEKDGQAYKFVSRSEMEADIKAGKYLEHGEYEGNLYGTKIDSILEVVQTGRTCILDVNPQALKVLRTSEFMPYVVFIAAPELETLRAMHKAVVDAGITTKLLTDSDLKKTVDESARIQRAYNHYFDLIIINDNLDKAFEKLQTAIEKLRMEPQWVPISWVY
UniProt Q9NXC5: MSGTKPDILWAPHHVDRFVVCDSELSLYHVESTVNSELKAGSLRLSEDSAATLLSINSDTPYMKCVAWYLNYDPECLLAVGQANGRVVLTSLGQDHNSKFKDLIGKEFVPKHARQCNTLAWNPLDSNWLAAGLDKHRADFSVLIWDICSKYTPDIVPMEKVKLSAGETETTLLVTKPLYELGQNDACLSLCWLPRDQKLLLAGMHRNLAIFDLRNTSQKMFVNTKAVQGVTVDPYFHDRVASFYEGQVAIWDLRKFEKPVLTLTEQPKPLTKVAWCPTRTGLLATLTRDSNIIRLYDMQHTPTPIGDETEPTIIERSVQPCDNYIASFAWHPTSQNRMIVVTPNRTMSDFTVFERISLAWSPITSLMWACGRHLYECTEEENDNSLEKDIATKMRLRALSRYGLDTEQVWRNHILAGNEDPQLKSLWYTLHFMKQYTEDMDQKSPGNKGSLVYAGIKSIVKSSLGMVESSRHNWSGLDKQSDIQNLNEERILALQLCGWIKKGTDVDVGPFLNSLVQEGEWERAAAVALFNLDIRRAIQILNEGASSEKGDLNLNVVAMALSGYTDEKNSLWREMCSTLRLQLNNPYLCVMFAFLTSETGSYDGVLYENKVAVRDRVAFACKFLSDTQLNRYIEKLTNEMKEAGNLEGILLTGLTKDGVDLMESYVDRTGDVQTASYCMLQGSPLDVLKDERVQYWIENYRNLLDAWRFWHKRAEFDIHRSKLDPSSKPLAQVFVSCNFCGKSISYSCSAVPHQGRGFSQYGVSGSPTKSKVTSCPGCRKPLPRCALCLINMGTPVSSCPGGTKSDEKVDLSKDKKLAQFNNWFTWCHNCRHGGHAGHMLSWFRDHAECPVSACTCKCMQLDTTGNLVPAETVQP
UniProt Q9H081: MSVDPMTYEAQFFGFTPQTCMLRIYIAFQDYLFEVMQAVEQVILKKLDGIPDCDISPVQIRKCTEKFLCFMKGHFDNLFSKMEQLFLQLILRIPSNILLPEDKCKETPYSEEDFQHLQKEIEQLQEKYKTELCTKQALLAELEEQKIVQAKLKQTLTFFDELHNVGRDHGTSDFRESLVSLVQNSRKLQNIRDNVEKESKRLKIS
UniProt Q14149: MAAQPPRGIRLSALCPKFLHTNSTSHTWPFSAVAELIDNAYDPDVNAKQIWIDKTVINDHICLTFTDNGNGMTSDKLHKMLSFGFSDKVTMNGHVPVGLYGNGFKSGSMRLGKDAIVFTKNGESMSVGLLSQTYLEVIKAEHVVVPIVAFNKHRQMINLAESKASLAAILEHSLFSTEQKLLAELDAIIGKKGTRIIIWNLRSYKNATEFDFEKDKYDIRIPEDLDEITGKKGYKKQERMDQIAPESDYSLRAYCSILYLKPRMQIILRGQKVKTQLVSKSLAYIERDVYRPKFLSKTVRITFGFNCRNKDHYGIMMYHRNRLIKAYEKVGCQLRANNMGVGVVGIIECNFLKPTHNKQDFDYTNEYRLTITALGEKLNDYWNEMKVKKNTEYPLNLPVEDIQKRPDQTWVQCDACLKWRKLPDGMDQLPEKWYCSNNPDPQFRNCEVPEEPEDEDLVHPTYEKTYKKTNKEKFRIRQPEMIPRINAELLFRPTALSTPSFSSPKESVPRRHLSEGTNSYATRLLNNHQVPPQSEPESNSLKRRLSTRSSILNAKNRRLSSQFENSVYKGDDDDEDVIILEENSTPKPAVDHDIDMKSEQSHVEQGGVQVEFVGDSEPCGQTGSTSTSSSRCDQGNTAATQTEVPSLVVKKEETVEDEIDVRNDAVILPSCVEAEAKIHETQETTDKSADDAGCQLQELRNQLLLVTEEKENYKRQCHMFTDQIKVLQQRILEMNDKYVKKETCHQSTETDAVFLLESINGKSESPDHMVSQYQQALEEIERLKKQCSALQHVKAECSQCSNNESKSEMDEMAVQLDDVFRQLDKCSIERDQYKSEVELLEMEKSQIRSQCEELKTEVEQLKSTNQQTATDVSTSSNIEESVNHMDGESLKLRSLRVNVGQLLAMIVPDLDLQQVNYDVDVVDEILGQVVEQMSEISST
UniProt Q9BRT3: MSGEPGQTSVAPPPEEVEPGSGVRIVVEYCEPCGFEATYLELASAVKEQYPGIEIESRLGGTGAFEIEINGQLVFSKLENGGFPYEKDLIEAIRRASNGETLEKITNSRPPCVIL
UniProt Q9BPX6: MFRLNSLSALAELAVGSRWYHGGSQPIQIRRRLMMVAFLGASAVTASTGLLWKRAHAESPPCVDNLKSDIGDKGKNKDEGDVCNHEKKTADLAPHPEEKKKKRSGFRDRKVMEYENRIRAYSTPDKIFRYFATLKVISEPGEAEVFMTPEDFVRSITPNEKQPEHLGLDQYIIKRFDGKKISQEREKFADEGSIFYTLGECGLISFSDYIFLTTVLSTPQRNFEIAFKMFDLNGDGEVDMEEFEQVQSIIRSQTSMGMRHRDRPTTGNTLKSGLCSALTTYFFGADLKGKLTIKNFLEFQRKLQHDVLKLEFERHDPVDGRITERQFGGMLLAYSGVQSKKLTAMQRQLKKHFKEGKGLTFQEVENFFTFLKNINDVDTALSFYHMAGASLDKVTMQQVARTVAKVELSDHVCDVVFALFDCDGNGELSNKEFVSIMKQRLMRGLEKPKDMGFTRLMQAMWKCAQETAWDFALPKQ
UniProt O00566: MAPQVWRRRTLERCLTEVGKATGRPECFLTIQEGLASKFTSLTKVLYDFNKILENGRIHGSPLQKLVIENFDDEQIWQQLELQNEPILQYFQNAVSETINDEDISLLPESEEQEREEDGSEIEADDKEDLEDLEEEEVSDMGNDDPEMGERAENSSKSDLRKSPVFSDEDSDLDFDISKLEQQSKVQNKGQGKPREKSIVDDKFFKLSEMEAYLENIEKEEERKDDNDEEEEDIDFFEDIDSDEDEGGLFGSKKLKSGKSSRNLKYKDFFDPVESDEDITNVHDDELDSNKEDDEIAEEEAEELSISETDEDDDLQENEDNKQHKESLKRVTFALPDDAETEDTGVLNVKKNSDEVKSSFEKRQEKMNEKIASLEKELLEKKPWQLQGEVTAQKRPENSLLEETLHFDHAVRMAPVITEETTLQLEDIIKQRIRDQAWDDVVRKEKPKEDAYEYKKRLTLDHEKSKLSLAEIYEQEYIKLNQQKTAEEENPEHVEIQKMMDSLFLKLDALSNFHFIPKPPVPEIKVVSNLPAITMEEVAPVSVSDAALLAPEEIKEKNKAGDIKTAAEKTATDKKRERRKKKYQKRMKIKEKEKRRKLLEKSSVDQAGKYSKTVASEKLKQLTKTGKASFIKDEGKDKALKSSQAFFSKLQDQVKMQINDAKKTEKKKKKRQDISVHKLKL
UniProt Q9H000: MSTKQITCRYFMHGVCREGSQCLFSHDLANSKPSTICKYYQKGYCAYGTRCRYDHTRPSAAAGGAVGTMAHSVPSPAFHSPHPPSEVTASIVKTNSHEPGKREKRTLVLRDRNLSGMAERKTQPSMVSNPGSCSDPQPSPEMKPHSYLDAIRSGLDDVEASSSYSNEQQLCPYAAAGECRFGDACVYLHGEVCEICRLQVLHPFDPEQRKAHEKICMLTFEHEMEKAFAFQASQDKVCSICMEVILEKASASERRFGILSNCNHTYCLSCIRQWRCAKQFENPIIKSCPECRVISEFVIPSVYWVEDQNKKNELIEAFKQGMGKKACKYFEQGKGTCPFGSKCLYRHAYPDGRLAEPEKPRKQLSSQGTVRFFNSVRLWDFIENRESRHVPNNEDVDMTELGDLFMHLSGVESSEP
UniProt Q8IYU8: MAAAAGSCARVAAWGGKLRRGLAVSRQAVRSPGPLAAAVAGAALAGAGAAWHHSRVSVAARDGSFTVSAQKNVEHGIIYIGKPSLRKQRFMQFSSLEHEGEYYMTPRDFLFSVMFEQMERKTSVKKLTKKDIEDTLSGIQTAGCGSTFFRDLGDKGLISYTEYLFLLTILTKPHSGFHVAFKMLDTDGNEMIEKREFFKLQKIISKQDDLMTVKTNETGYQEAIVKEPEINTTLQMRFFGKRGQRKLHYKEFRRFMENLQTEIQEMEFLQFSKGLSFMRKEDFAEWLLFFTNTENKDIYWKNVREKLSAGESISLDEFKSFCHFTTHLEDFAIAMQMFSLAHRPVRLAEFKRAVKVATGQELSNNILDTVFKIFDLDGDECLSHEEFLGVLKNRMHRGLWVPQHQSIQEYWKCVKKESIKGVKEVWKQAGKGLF
UniProt Q8NHP6: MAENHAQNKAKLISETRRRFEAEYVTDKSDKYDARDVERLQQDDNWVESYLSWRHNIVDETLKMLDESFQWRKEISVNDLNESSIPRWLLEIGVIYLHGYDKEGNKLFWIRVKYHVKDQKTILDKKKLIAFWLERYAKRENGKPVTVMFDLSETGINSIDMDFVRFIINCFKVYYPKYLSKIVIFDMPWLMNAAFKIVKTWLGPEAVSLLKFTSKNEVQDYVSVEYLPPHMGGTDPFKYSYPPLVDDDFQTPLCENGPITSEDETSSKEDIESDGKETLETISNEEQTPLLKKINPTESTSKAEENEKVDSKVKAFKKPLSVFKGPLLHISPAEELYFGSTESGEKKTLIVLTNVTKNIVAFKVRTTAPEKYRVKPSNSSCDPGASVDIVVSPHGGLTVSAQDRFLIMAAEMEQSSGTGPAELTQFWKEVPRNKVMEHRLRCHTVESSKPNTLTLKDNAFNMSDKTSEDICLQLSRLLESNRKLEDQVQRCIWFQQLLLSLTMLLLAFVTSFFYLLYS
UniProt Q96EY8: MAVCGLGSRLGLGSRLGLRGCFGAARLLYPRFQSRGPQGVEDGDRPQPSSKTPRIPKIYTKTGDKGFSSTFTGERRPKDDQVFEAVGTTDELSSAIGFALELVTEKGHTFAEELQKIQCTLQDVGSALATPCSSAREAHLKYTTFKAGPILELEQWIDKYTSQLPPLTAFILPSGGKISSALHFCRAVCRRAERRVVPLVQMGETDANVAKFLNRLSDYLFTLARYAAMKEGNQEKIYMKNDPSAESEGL

Assays:
Assay in all cases: log2 fold change, soluble protein after heating vs DMSO (PISA); higher = thermal stabilisation; K562 cells, 10 uM, 30 min; active = over 0.2 and 3.5 SD of the protein, either way, in both replicates (recomputed)
[1] = compound: COC1=CC=C(C=C1)CN2C=CC3=C2C=C(C=C3)C(=O)NO
Method in brief: (§1)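 Quantification of soluble protein used TMTpro 16plex LC-MS/MS, with channel sums equalised. Samples were the supernatant after 21,000xg for 90 min of pooled aliquots from K562 cells (2×10^6 cells/mL) treated with 10 μM compound for 30 min, heated for 3 min over 48°C-58°C, and extracted in PBS with 0.5% NP-40 at 4°C. Values, from duplicates, describe thermal stability against control samples on a log2 fold-change scale.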

[2] = compound: CON(C)C(=O)N1N=C(c2cc(F)ccc2F)S[C@@]1(CCCN)c1ccccc1 [filanesib]
Method in brief: as §1

[3] = compound: CO[C@H]1C[C@@H]2CC[C@@H](C)[C@@](O)(O2)C(=O)C(=O)N2CCCC[C@H]2C(=O)O[C@H]([C@H](C)C[C@@H]2CC[C@H](n3cnnn3)[C@H](OC)C2)CC(=O)[C@H](C)/C=C(\C)[C@@H](O)[C@@H](OC)C(=O)[C@H](C)C[C@H](C)/C=C/C=C/C=C/1C [zotarolimus]
Method in brief: as §1

[4] = compound: COc1cc(C(=O)O)ccc1NC(=O)[C@@H]1N[C@@H](CC(C)(C)C)[C@](C#N)(c2ccc(Cl)cc2F)[C@H]1c1cccc(Cl)c1F [idasanutlin]
Method in brief: as §1

[5] = compound: COc1cc(Nc2ncc3c(n2)-c2ccc(Cl)cc2C(c2c(F)cccc2OC)=NC3)ccc1C(=O)O [alisertib]
Method in brief: as §1

[6] = compound: COc1cc2nc(-c3cc(F)ccc3O)nc(N[C@@H]3CNC[C@H]3C(C)(C)O)c2cc1OC
Method in brief: as §1

[7] = compound: COc1cc2ncnc(Nc3ccc(F)c(Cl)c3)c2cc1OCCCN1CCOCC1 [gefitinib]
Method in brief: as §1

[8] = compound: COc1cccc2cc(-c3nc([C@H]4CC[C@H](C(=O)O)CC4)n4ncnc(N)c34)[nH]c12
Method in brief: as §1

[9] = compound: CS(=O)(=O)CCNCc1ccc(-c2ccc3ncnc(Nc4ccc(OCc5cccc(F)c5)c(Cl)c4)c3c2)o1 [lapatinib]
Method in brief: as §1

[10] = compound: CS(=O)(=O)N1CCN(Cc2cc3nc(-c4cccc5[nH]ncc45)nc(N4CCOCC4)c3s2)CC1 [pictilisib]
Method in brief: as §1

Measured: log2 fold change

MRPL44 (UniProt Q9H9J2)
inactive: [1] 0 | [2] 0.124 | [3] 0.096 | [4] -0.041 | [5] -0.01 | [6] -0.015 | [7] -0.056 | [8] -0.009 | [9] 0.141 | [10] -0.149

MRPL33 (UniProt O75394)
inactive: [1] 0.073 | [2] 0.008 | [3] -0.021 | [4] -0.035 | [5] -0.066 | [6] -0.024 | [7] -0.018 | [8] -0.138 | [9] 0.163

MON1B (UniProt Q7L1V2)
inactive: [1] -0.012 | [2] 0.029 | [3] -0.008 | [4] -0.056 | [5] -0.136 | [6] 0.065 | [7] -0.012 | [8] 0.037 | [9] 0.055 | [10] 0.029

MNAT1 (UniProt P51948)
inactive: [1] -0.025 | [2] 0.073 | [3] 0.011 | [4] 0.021 | [5] -0.047 | [6] -0.04 | [7] -0.039 | [8] 0.036 | [9] 0.009 | [10] -0.016

MPDU1 (UniProt O75352)
inactive: [1] 0.012 | [2] -0.013 | [3] -0.105 | [4] 0.005 | [5] -0.075 | [6] -0.105 | [7] 0.111 | [8] 0.077 | [9] 0 | [10] 0.076

MMGT1 isoform 2 (UniProt Q8N4V1)
inactive: [1] 0.022 | [2] -0.072 | [3] 0.009 | [4] -0.039 | [5] 0.009 | [6] -0.073 | [7] -0.022 | [8] 0.074 | [9] 0.001 | [10] 0.015

MRPL48 (UniProt Q96GC5)
inactive: [1] -0.024 | [2] 0.22 | [3] 0.017 | [4] -0.135 | [5] -0.044 | [6] 0.006 | [7] 0.036 | [8] -0.043 | [9] 0.147 | [10] -0.038

MRPL1 (UniProt Q9BYD6)
inactive: [1] -0.021 | [2] 0.102 | [3] 0.091 | [4] 0.037 | [5] 0.06 | [6] -0.03 | [7] -0.036 | [8] -0.055 | [9] 0.137 | [10] 0.023

MOCS2 (UniProt O96007)
inactive: [1] 0.01 | [2] -0.05 | [3] -0.031 | [4] -0.042 | [5] 0.044 | [6] 0.061 | [7] -0.01 | [8] 0.067 | [9] -0.041 | [10] 0.111

MOB1B isoform 2 (UniProt Q7L9L4)
inactive: [1] -0.021 | [2] -0.107 | [3] 0 | [4] -0.048 | [5] 0.014 | [6] -0.023 | [7] 0.012 | [8] 0.058 | [9] 0.008 | [10] -0.042

MRPL16 (UniProt Q9NX20)
inactive: [1] 0.053 | [2] 0.228 | [3] 0.073 | [4] -0.061 | [5] -0.059 | [6] 0.063 | [7] -0.092 | [8] -0.1 | [9] 0.249 | [10] -0.165

MPP6 (UniProt Q9NZW5)
inactive: [1] 0.035 | [2] -0.019 | [3] -0.002 | [4] 0.018 | [5] -0.024 | [6] -0.043 | [7] 0.047 | [8] 0.026 | [9] 0.05 | [10] 0.088

MRPL53 (UniProt Q96EL3)
inactive: [1] -0.093 | [2] 0.172 | [3] 0.066 | [4] 0.093 | [5] -0.071 | [6] -0.032 | [7] -0.054 | [8] -0.073 | [9] 0.159 | [10] -0.069

MRPL37 (UniProt Q9BZE1)
inactive: [1] -0.123 | [2] -0.057 | [3] 0.056 | [4] -0.117 | [5] -0.028 | [6] 0.001 | [7] -0.052 | [8] -0.009 | [9] 0.083 | [10] 0.036

MIOS (UniProt Q9NXC5)
inactive: [1] -0.031 | [2] 0.119 | [3] -0.001 | [4] 0.057 | [5] -0.066 | [6] 0.035 | [7] -0.006 | [8] -0.045 | [9] 0.014 | [10] -0.044

MRPL51 (UniProt Q4U2R6)
inactive: [1] -0.1 | [2] 0.212 | [3] 0.056 | [4] 0.086 | [5] -0.081 | [6] -0.043 | [7] -0.088 | [8] -0.077 | [9] 0.153 | [10] -0.101

MRPL2 (UniProt Q5T653)
inactive: [1] -0.08 | [2] 0.235 | [3] 0.094 | [4] -0.195 | [5] -0.04 | [6] -0.105 | [7] -0.031 | [8] -0.144 | [9] 0.266 | [10] 0.01

MIS12 (UniProt Q9H081)
inactive: [1] 0.079 | [2] 0.004 | [3] 0.077 | [4] -0.011 | [5] 0.06 | [6] 0.035 | [7] 0.026 | [8] 0.032 | [9] -0.048 | [10] -0.005

MORC3 (UniProt Q14149)
inactive: [1] 0.013 | [2] -0.04 | [3] 0.015 | [4] 0.021 | [5] 0.039 | [6] 0.146 | [7] -0.082 | [8] 0 | [9] -0.058 | [10] 0.196

MIEN1 (UniProt Q9BRT3)
inactive: [1] -0.084 | [2] 0.085 | [3] 0.015 | [4] -0.009 | [5] 0.034 | [6] 0.061 | [7] 0.027 | [8] 0.001 | [9] -0.016 | [10] 0.001

MICU1 isoform 3 (UniProt Q9BPX6)
active: [6] -0.278
inactive: [1] -0.047 | [2] -0.031 | [3] -0.034 | [4] 0.05 | [5] -0.011 | [7] 0.02 | [8] -0.056 | [9] 0.019 | [10] -0.038

MRPL10 isoform 2 (UniProt Q7Z7H8)
inactive: [1] -0.043 | [2] 0.188 | [3] 0.033 | [4] -0.08 | [5] 0.047 | [6] -0.04 | [7] -0.06 | [8] -0.005 | [9] 0.031 | [10] -0.116

MPHOSPH10 (UniProt O00566)
inactive: [1] -0.139 | [3] 0.053 | [4] 0.271 | [5] -0.061 | [6] -0.166 | [7] 0.026 | [8] -0.031 | [9] 0.174 | [10] -0.105
active: [2] 0.561

MKRN2 (UniProt Q9H000)
inactive: [1] 0.024 | [2] 0.137 | [3] -0.035 | [4] 0.147 | [5] -0.009 | [6] 0.101 | [7] -0.099 | [8] -0.079 | [9] -0.027 | [10] 0.03

MICU2 (UniProt Q8IYU8)
inactive: [1] 0.067 | [2] -0.089 | [3] -0.142 | [4] 0.022 | [5] -0.067 | [6] -0.21 | [7] 0.038 | [8] -0.031 | [9] -0.031 | [10] 0.005

MKNK1 (UniProt Q9BUB5)
active: [7] 0.525
inactive: [1] 0.021 | [2] -0.108 | [3] -0.022 | [4] -0.075 | [5] 0.008 | [6] -0.021 | [8] -0.073 | [9] 0.015 | [10] -0.058

MRPL45 (UniProt Q9BRJ2)
inactive: [1] -0.026 | [2] 0.124 | [3] 0.037 | [4] -0.115 | [5] -0.153 | [6] 0.02 | [7] -0.132 | [8] -0.089 | [9] 0.109 | [10] 0.013

MOSPD2 (UniProt Q8NHP6)
inactive: [1] 0.016 | [2] -0.02 | [3] -0.001 | [4] 0.018 | [5] -0.135 | [6] -0.003 | [7] 0.05 | [8] 0.03 | [9] 0.07 | [10] 0.055

MMAB (UniProt Q96EY8)
inactive: [1] -0.003 | [2] 0.017 | [3] -0.06 | [4] -0.056 | [5] -0.029 | [6] -0.028 | [7] -0.023 | [8] 0.029 | [9] 0.005 | [10] 0

MRPL4 (UniProt Q9BYD3)
inactive: [1] -0.004 | [2] 0.013 | [3] 0.01 | [4] 0.012 | [5] 0.017 | [6] -0.089 | [7] 0.014 | [8] -0.002 | [9] 0.161 | [10] 0.017
